Earlier results, collected in patent US8617611B2, “Polymeric compositions comprising therapeutic agents in crystalline phases, and methods of forming the same” (Cordis Corporation, priority 2005, dated 2013).
At least one structure is not confirmed: it was looked up by name or label, or the drawing left a doubt.

Test system: vascular smooth muscle cells

SMILES: CO[C@H]1C[C@@H]2CC[C@@H](C)[C@@](O)(O2)C(=O)C(=O)N2CCCC[C@H]2C(=O)O[C@H]([C@H](C)C[C@@H]2CC[C@@H](O)[C@H](OC)C2)CC(=O)[C@H](C)/C=C(\C)[C@@H](O)[C@@H](OC)C(=O)[C@H](C)C[C@H](C)/C=C/C=C/C=C/1C [Sirolimus]
- proliferation of vascular smooth muscle cells in vivo: inhibits the proliferation
